{
  "source": "paper PMC6504209",
  "key": {"[1]": {"molecular_target": "p85 regulatory subunit of PI3K (human (endogenous in patient-derived GBM cells))", "test": "co-IP; IP with anti-p85 antibody from 500 µg protein of PTEN-deficient GBM cell lysate (25 mM Tris-HCl pH 7.4, 150 mM NaCl, 1% NP-40, 1 mM EDTA, 5% glycerol), overnight, protein A/G beads, three washes; immunoblot with PIP4K2A antibody; IgG as control antibody"}, "[2]": {"molecular_target": "p85 regulatory subunit of PI3K (human (endogenous in patient-derived GBM cells))", "test": "co-IP; co-IP of p85, PIP4K2A and PTEN from PTEN-deficient GBM cells transduced with control or doxycycline-inducible PTEN wild-type; same lysis buffer and IP procedure; IgG as control antibody"}},
  "note": "Results are given in words; binding and its absence hold for the method and conditions named. Binding seen in cells or lysates may run through a third protein. A result given as binding can be weak or reduced; the word gives no strength.",
  "data": [
    {"binder": "PIP4K2A (phosphatidylinositol-5-phosphate 4-kinase, type II, alpha) (enzyme, UniProt P48426 1-406) MATPGNLGSSVLASKTKTKKKHFVAQKVKLFRASDPLLSVLMWGVNHSINELSHVQIPVMLMPDDFKAYSKIKVDNHLFNKENMPSHFKFKEYCPMVFRNLRERFGIDDQDFQNSLTRSAPLPNDSQARSGARFHTSYDKRYIIKTITSEDVAEMHNILKKYHQYIVECHGITLLPQFLGMYRLNVDGVEIYVIVTRNVFSHRLSVYRKYDLKGSTVAREASDKEKAKELPTLKDNDFINEGQKIYIDDNNKKVFLEKLKKDVEFLAQLKLMDYSLLVGIHDVERAEQEEVECEENDGEEEGESDGTHPVGTPPDSPGNTLNSSPPLAPGEFDPNIDVYGIKCHENSPRKEVYFMAIIDILTHYDAKKKAAHAAKTVKHGAGAEISTVNPEQYSKRFLDFIGHILT", "values": [
      {"measurement": "binding", "setting": "[1]", "value": "binds"},
      {"measurement": "binding", "setting": "[2]", "value": "binds"}
    ]}
  ]
}
